Assay in all cases: affinity purification with mass spectrometry; anti-FLAG M2 magnetic beads on ovary lysates of transgenic D. melanogaster expressing the LAP-tagged bait; 3 h at 4 °C; 20 mM Tris-HCl pH 7.5, 150 mM NaCl, 2 mM MgCl2, 10% glycerol, 1 mM DTT, 0.2% IGEPAL CA-630; four biological replicates; enrichment against a control IP
The target of assay [1] is T1, GFP-DmDeadlock (D. melanogaster) (UniProt Q9VIF5).
T1 sequence: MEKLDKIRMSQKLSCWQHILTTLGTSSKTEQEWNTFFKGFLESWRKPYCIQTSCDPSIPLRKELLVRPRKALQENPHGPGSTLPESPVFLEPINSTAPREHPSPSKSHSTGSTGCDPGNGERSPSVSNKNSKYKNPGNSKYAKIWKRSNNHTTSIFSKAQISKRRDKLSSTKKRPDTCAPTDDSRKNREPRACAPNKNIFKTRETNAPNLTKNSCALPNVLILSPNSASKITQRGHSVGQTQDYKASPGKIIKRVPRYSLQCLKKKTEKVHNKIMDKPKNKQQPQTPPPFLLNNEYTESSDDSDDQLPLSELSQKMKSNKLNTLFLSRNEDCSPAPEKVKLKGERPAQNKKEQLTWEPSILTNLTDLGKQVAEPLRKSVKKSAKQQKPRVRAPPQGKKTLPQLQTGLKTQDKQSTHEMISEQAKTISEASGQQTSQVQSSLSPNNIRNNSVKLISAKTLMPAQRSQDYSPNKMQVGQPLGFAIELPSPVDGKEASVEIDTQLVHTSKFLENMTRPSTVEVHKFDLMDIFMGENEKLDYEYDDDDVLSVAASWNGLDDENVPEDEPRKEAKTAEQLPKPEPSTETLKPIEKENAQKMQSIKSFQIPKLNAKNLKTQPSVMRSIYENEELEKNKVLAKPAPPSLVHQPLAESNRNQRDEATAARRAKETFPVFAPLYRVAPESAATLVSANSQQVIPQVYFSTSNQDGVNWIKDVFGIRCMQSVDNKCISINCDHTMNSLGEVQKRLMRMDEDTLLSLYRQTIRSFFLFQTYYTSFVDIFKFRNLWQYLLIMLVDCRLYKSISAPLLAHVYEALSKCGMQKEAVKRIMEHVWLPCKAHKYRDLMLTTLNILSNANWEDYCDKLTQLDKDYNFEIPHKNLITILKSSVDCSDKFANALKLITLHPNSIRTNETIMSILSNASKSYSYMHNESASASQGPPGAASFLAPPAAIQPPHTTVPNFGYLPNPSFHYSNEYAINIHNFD

For assay [2], the target named is GFP-DeDeadlock (D. erecta).
Assay [3] concerns the target GFP-DsDeadlock (D. simulans).
The target in assay [4] is GFP-DsBootlegger (N-terminally tagged D. simulans Bootlegger) (D. simulans).
Assay [5] addresses DmBootlegger-GFP (C-terminally tagged D. melanogaster Bootlegger) (D. melanogaster).

Binding data for six molecules are collected here from article PMC12992792.

No constants are given. Whether binding was seen depends on the method and setting. Binding seen in cells or lysates may run through a third protein. Here binding means that the protein was enriched with, or labelled near, the bait; the list need not be complete. For some assays here: A no says only that the protein was not detected with the bait. For some assays here: Where a sequence is shown, tags or fusion partners need not be part of it.

In the case of “Bootlegger (endogenous, D. melanogaster ovaries)”, the binding result in assay [1] was “no binding”.

B1: Moonshiner (endogenous, D. melanogaster ovaries) (protein, UniProt Q9VYQ0 1-172)
chain: MAKILPTDGIWIPESCSFPEDVMIDMMEGLFRDVPNLTHKEYLALADLQSRWMAKLANRQPESNPLPPKPKKRKKIAPKKQDQPVEEKGSEVDIYDVDDNEMVNNRIYIPRLRSAWRARYFNIMMRAFVIKRGLLNKHINWQILDKIMAAPDAEGQAELQAFVDKVVAGQEM
With B1, the binding entry in assay [2] and in assay [3] was “binds” in each case.

B2: Deadlock (endogenous, D. melanogaster ovaries) (protein, UniProt Q9VIF5 1-981)
chain: MEKLDKIRMSQKLSCWQHILTTLGTSSKTEQEWNTFFKGFLESWRKPYCIQTSCDPSIPLRKELLVRPRKALQENPHGPGSTLPESPVFLEPINSTAPREHPSPSKSHSTGSTGCDPGNGERSPSVSNKNSKYKNPGNSKYAKIWKRSNNHTTSIFSKAQISKRRDKLSSTKKRPDTCAPTDDSRKNREPRACAPNKNIFKTRETNAPNLTKNSCALPNVLILSPNSASKITQRGHSVGQTQDYKASPGKIIKRVPRYSLQCLKKKTEKVHNKIMDKPKNKQQPQTPPPFLLNNEYTESSDDSDDQLPLSELSQKMKSNKLNTLFLSRNEDCSPAPEKVKLKGERPAQNKKEQLTWEPSILTNLTDLGKQVAEPLRKSVKKSAKQQKPRVRAPPQGKKTLPQLQTGLKTQDKQSTHEMISEQAKTISEASGQQTSQVQSSLSPNNIRNNSVKLISAKTLMPAQRSQDYSPNKMQVGQPLGFAIELPSPVDGKEASVEIDTQLVHTSKFLENMTRPSTVEVHKFDLMDIFMGENEKLDYEYDDDDVLSVAASWNGLDDENVPEDEPRKEAKTAEQLPKPEPSTETLKPIEKENAQKMQSIKSFQIPKLNAKNLKTQPSVMRSIYENEELEKNKVLAKPAPPSLVHQPLAESNRNQRDEATAARRAKETFPVFAPLYRVAPESAATLVSANSQQVIPQVYFSTSNQDGVNWIKDVFGIRCMQSVDNKCISINCDHTMNSLGEVQKRLMRMDEDTLLSLYRQTIRSFFLFQTYYTSFVDIFKFRNLWQYLLIMLVDCRLYKSISAPLLAHVYEALSKCGMQKEAVKRIMEHVWLPCKAHKYRDLMLTTLNILSNANWEDYCDKLTQLDKDYNFEIPHKNLITILKSSVDCSDKFANALKLITLHPNSIRTNETIMSILSNASKSYSYMHNESASASQGPPGAASFLAPPAAIQPPHTTVPNFGYLPNPSFHYSNEYAINIHNFD
With B2, the binding result in assay [4] was “binds”.

B3: TFIIA-S (endogenous, D. melanogaster ovaries) (protein, UniProt P52656 1-106)
chain: MSYQLYRNTTLGNTLQESLDELIQYGQITPGLAFKVLLQFDKSINNALNQRVKARVTFKAGKLNTYRFCDNVWTLMLNDVEFREVHEIVKVDKVKIVACDGKSGEF
For B3, the binding result in assay [2] and in assay [3] was “binds” in each case.

B4: Ago3 (endogenous, D. melanogaster ovaries) (protein, UniProt Q7PLK0 1-867)
chain: MSGRGNLLSLFNKNAGNMGKSISSKDHEIDSGLDFNNSESSGERLLSSHNIETDLITTLQHVNISVGRGRARLIDTLKTDDHTSNQFITSESKENITKKTKGPESEAIASENGLFFPDLIYGSKGSSVNIYCNYLKLTTDESKGVFNYEVRFFPPIDSVHLRIKYLNDHKDKLGGTKTFDGNTLYLPILLPNKMTVFISKAEDVELQIRILYKKKEEMRNCTQLYNILFDRVMKVLNYVKFDRKQFDPSRPKIIPLAKLEVWPGYVTAVDEYKGGLMLCCDVSHRILCQKTVLEMLVDLYQQNVEHYQESARKMLVGNIVLTRYNNRTYKINDICFDQNPTCQFEIKTGCTSYVEYYKQYHNINIKDVNQPLIYSIKKSRGIPAERENLQFCLIPELCYLTGLRDEVRSDNKLMREIATFTRVSPNQRQMALNKFYENVSNTPAAQEILNSWGLSLTNNSNKISGRQMDIEQIYFSKISVSAGRSAEFSKHAVTNEMLKVVHLSKWIIIHLRNYRQAATSLLDNMKQACESLGMNISNPTMISLDHDRIDAYIQALRRNITMNTQMVVCICHNRRDDRYAAIKKICCSEIPIPSQVINAKTLQNDLKIRSVVQKIVLQMNCKLGGSLWTVKIPFKNVMICGIDSYHDPSNRGNSVAAFVASINSSYSQWYSKAVVQTKREEIVNGLSASFEIALKMYRKRNGKLPTNIIIYRDGIGDGQLYTCLNYEIPQFEMVCGNRIKISYIVVQKRINTRIFSGSGIHLENPLPGTVVDQHITKSNMYDFFLVSQLVRQGTVTPTHYVVLRDDCNYGPDIIQKLSYKLCFLYYNWAGTVRIPACCMYAHKLAYLIGQSIQRDVAEALSEKLFYL
For B4, the binding result in assay [5] was “binds”.

B5: Piwi (endogenous, D. melanogaster ovaries) (protein, UniProt Q9VKM1 1-843)
chain: MADDQGRGRRRPLNEDDSSTSRGSGDGPRVKVFRGSSSGDPRADPRIEASRERRALEEAPRREGGPTERKPWGDQYDYLNTRPAELVSKKGTDGVPVMLQTNFFRLKTKPEWRIVHYHVEFEPSIENPRVRMGVLSNHANLLGSGYLFDGLQLFTTRKFEQEITVLSGKSKLDIEYKISIKFVGFISCAEPRFLQVLNLILRRSMKGLNLELVGRNLFDPRAKIEIREFKMELWPGYETSIRQHEKDILLGTEITHKVMRTETIYDIMRRCSHNPARHQDEVRVNVLDLIVLTDYNNRTYRINDVDFGQTPKSTFSCKGRDISFVEYYLTKYNIRIRDHNQPLLISKNRDKALKTNASELVVLIPELCRVTGLNAEMRSNFQLMRAMSSYTRMNPKQRTDRLRAFNHRLQNTPESVKVLRDWNMELDKNVTEVQGRIIGQQNIVFHNGKVPAGENADWQRHFRDQRMLTTPSDGLDRWAVIAPQRNSHELRTLLDSLYRAASGMGLRIRSPQEFIIYDDRTGTYVRAMDDCVRSDPKLILCLVPNDNAERYSSIKKRGYVDRAVPTQVVTLKTTKNRSLMSIATKIAIQLNCKLGYTPWMIELPLSGLMTIGFDIAKSTRDRKRAYGALIASMDLQQNSTYFSTVTECSAFDVLANTLWPMIAKALRQYQHEHRKLPSRIVFYRDGVSSGSLKQLFEFEVKDIIEKLKTEYARVQLSPPQLAYIVVTRSMNTRFFLNGQNPPPGTIVDDVITLPERYDFYLVSQQVRQGTVSPTSYNVLYSSMGLSPEKMQKLTYKMCHLYYNWSGTTRVPAVCQYAKKLATLVGTNLHSIPQNALEKKFYYL
For B5, the binding entry in assay [5] is “binds”.
